# Reference: paper doi:10.1101/542795
# Sequences of proteins named here, by UniProt entry; tags and fusion partners are left off.
# UniProt Q9VEN1: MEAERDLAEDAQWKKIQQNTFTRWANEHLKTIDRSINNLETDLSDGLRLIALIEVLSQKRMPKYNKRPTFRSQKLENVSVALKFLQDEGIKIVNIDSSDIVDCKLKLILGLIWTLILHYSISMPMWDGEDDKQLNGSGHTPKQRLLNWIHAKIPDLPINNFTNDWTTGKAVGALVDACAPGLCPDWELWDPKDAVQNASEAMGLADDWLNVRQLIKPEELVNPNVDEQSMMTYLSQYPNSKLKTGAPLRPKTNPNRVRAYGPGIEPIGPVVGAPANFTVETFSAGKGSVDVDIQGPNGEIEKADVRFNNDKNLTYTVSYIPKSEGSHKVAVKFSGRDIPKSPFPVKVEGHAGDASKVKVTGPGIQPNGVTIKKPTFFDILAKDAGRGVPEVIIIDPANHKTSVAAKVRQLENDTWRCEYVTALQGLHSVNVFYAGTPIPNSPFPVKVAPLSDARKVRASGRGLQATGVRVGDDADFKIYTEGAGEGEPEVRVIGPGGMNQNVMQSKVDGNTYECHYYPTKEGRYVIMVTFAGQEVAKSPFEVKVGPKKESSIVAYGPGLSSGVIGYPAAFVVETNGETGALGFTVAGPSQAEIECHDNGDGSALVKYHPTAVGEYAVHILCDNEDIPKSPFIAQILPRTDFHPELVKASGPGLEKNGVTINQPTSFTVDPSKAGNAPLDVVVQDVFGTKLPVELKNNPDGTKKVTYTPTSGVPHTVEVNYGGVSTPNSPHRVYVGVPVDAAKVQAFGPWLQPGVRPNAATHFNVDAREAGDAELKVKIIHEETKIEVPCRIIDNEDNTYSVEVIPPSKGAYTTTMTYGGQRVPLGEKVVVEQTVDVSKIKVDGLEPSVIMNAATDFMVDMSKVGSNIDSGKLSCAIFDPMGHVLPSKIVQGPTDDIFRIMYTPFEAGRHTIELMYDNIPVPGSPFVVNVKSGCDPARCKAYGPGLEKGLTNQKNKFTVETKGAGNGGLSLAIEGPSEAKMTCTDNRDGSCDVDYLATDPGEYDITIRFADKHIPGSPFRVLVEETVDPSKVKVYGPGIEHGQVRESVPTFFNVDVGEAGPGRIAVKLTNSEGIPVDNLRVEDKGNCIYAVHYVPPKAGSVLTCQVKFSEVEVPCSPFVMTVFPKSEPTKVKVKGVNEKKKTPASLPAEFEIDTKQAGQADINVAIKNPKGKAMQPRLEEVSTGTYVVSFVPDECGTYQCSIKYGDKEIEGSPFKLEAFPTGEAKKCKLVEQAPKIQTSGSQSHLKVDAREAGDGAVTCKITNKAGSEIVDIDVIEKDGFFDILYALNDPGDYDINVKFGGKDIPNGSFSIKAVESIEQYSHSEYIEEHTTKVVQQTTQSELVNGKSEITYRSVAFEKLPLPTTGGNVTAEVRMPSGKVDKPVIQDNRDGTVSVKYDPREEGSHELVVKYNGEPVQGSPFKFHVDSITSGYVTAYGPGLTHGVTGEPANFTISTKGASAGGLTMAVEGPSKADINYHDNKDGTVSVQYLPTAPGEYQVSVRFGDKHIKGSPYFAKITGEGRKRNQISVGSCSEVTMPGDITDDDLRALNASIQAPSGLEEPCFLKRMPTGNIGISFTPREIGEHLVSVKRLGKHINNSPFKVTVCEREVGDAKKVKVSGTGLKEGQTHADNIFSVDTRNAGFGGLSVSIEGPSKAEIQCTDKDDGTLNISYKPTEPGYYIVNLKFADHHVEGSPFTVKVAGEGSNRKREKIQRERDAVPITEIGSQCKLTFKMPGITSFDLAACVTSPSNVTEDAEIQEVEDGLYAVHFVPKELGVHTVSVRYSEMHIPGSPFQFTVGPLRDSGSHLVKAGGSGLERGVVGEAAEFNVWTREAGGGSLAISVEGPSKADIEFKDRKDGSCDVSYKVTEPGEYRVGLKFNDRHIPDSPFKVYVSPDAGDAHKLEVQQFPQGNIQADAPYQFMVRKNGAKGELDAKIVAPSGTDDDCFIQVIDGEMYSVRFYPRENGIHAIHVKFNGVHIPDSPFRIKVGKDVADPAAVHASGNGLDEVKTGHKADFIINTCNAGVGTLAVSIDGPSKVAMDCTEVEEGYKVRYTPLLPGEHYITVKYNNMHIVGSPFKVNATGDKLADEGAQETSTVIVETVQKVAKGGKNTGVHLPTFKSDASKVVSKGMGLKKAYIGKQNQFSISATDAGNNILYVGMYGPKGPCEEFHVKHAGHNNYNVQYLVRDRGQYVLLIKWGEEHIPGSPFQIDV
# Where two headings read alike, the source gives them in different places. No constants are given. Whether binding was seen depends on the method and setting. In cells and extracts the contact can be indirect. These calls come from enrichment with a bait or labelling near it, and not all partners need be listed. For part of these data: A no says only that the protein was not detected with the bait. For part of these data: Where a sequence is shown, tags or fusion partners need not be part of it.
# T1: HtsRC::V5::APEX1 (Drosophila melanogaster) (UniProt Q02645)
# T1 sequence: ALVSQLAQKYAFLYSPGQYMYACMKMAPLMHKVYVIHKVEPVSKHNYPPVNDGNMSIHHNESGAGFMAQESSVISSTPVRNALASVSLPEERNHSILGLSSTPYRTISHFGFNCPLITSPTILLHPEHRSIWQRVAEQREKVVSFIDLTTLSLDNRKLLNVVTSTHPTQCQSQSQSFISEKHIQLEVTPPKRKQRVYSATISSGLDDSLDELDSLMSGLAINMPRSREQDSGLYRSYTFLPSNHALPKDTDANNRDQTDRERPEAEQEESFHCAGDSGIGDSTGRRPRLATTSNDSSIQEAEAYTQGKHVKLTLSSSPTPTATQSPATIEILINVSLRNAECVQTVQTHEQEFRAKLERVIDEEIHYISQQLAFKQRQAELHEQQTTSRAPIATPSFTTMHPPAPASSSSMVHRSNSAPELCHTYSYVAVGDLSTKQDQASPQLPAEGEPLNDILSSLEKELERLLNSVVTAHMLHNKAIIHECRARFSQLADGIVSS
# What was measured:
# Assay in all cases: proximity labelling
# [1] = biological target: APEX2::V5::Kelch (Drosophila melanogaster) (UniProt Q04652)
# [2] = biological target: T1, HtsRC::V5::APEX1 (Drosophila melanogaster)
# [3] = biological target: T1, HtsRC::V5::APEX1 (Drosophila melanogaster); remark: listed apart in the source
Molecule,binding [1],binding [2],binding [3]
Filamin (from UniProt Q9VEN1 1-2210),no binding,–,–
"HtsRC (protein, UniProt Q02645 659-1156) ALVSQLAQKYAFLYSPGQYMYACMKMAPLMHKVYVIHKVEPVSKHNYPPVNDGNMSIHHNESGAGFMAQESSVISSTPVRNALASVSLPEERNHSILGLSSTPYRTISHFGFNCPLITSPTILLHPEHRSIWQRVAEQREKVVSFIDLTTLSLDNRKLLNVVTSTHPTQCQSQSQSFISEKHIQLEVTPPKRKQRVYSATISSGLDDSLDELDSLMSGLAINMPRSREQDSGLYRSYTFLPSNHALPKDTDANNRDQTDRERPEAEQEESFHCAGDSGIGDSTGRRPRLATTSNDSSIQEAEAYTQGKHVKLTLSSSPTPTATQSPATIEILINVSLRNAECVQTVQTHEQEFRAKLERVIDEEIHYISQQLAFKQRQAELHEQQTTSRAPIATPSFTTMHPPAPASSSSMVHRSNSAPELCHTYSYVAVGDLSTKQDQASPQLPAEGEPLNDILSSLEKELERLLNSVVTAHMLHNKAIIHECRARFSQLADGIVSS",–,binds,binds
"CG9336 (protein, UniProt Q9VII1 24-125) IKCYQCESLTMPKCGLKFEADETLLLDCSRIGPPRYLQNFFPLRNATGCMKKTLESVAGHPQIVRSCYFGDINNIQAGCQSDPSMPFVKQLGCDVCTKDECN",binds,–,–

# Second part, the molecule after the results:
binding [1],binding [2],binding [3],Molecule
–,binds,–,Msp300 (from UniProt M9MRD1 1-12345)
–,–,binds,"HtsRC::V5::APEX1 (protein, UniProt Q02645 659-1156) ALVSQLAQKYAFLYSPGQYMYACMKMAPLMHKVYVIHKVEPVSKHNYPPVNDGNMSIHHNESGAGFMAQESSVISSTPVRNALASVSLPEERNHSILGLSSTPYRTISHFGFNCPLITSPTILLHPEHRSIWQRVAEQREKVVSFIDLTTLSLDNRKLLNVVTSTHPTQCQSQSQSFISEKHIQLEVTPPKRKQRVYSATISSGLDDSLDELDSLMSGLAINMPRSREQDSGLYRSYTFLPSNHALPKDTDANNRDQTDRERPEAEQEESFHCAGDSGIGDSTGRRPRLATTSNDSSIQEAEAYTQGKHVKLTLSSSPTPTATQSPATIEILINVSLRNAECVQTVQTHEQEFRAKLERVIDEEIHYISQQLAFKQRQAELHEQQTTSRAPIATPSFTTMHPPAPASSSSMVHRSNSAPELCHTYSYVAVGDLSTKQDQASPQLPAEGEPLNDILSSLEKELERLLNSVVTAHMLHNKAIIHECRARFSQLADGIVSS"
